According to publication PMC10897318:
No constants are given. Whether binding was seen depends on the method and setting. Binding seen in cells or lysates may run through a third protein. Some results given as binding are weak or reduced against the parent protein; the word gives no strength. Where a sequence is shown, tags or fusion partners need not be part of it.

The chains behind the UniProt entries cited, without tags or fusion partners.
UniProt Q15370: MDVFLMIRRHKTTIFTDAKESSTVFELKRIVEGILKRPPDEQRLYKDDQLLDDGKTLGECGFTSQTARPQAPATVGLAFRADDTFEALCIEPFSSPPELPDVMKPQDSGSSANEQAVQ

Biological target: T1, ZSWIM4-Myc (Myc-tagged human Zinc Finger SWIM-Type Containing 4) (human) (UniProt Q9H7M6)
T1 sequence: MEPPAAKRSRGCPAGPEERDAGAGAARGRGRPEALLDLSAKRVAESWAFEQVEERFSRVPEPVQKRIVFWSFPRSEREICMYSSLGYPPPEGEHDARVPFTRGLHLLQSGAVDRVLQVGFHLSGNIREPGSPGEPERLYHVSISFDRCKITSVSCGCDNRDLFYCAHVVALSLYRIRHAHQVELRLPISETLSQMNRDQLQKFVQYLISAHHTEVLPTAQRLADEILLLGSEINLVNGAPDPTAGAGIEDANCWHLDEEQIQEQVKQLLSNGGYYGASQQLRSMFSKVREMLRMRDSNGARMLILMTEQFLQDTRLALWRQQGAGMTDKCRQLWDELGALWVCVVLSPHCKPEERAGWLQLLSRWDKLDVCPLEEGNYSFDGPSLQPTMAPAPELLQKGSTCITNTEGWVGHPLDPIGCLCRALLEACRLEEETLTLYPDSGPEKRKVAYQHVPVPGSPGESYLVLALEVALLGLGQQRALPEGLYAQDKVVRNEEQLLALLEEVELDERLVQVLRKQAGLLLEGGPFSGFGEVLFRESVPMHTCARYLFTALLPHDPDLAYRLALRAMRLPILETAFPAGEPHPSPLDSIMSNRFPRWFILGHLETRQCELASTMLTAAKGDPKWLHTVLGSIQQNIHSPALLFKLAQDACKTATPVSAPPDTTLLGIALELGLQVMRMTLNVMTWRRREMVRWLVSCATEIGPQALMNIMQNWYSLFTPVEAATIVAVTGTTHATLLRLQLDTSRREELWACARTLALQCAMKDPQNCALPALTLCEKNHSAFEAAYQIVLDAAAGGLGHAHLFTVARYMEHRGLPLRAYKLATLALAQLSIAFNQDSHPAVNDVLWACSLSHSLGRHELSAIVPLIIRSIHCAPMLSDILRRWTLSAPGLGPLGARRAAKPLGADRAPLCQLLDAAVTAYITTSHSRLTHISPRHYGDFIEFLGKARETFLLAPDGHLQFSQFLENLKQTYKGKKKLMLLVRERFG
Test: co-IP; wild-type ZSWIM4 or ΔN with ELOB (Figure 6H) or ELOC (Figure 6I); cells, tags and antibodies not given

binding: binds
Substance: ELOB (construct of Figure 6H) (from UniProt Q15370 1-118)
